The values that follow come from US20220046917A1, “ATTRACTANT BLEND COMPOSITIONS, DEVICES AND METHODS FOR ATTRACTING FEMALE MICE” (priority 2020, published 2022).

Molecules are shown by their SMILES. Some compounds share one wording; it may come from a single statement.

The nature of the series: GC-MS analysis of headspace odorants emanating from urine- and feces-soiled bedding of mice. Set-up: species or system Mus musculus. The following applies: for Mean abundance (%) Female: headspace odorants of soiled bedding of female mice; for Mean abundance (%) Female / Mean abundance (%) Male: GC-MS; for Mean abundance (%) Male: headspace odorants of soiled bedding of male mice; for change in abundance in headspace odorants of male mice: males progressing from 30 to 33 days of age.

`C=C1CC/C=C(\C)CC[C@@H]2[C@@H]1CC2(C)C` (relative stereo) [trans-caryophyllene]: the “Mean abundance (%) Female” value is 0.21% and the “Mean abundance (%) Male” value is recorded as 0.3%.
As to `CCCCCCO` [1-hexanol], the “Mean abundance (%) Female” value is listed as 0.15% and the “change in abundance in headspace odorants of male mice” value (shortened to “change in abundance”) is recorded as “markedly increased in abundance”.
Consider `C=CC(O)CCCCC` (centres unmarked) [1-octen-3-ol], for which the “Mean abundance (%) Female” value is reported as 1.68% and the “Mean abundance (%) Male” value was determined as 2.46%.
The like results for `CCCCCO` [1-pentanol] were, in that order, 0.27% and 0.35%.
For the compound `CSCSSC` [2,3,5-trithiahexane], the “Mean abundance (%) Female” value was determined as 0.12% and the “Mean abundance (%) Male” value amounted to 8.91%.
For `CC(=O)C1=NCCC1` [2-acetyl-pyrroline], in that order: 0.12% and 1.03%.
Turning to `CCCCCC(C)=O` [2-heptanone], the “Mean abundance (%) Female” value is 32.83% and the “Mean abundance (%) Male” value is on record as 43.6%.
The like results for `CCCC(C)=O` [2-pentanone] were, in that order, 0.18% and 0.4%.
For `CCC(C)C1=NCCS1` (centres unmarked) [2-sec-butyl-4,5-dihydrothiazole, reference compound], the “Mean abundance (%) Female” value came to 0.0%, the “Mean abundance (%) Male” value is listed as 5.56% and the “change in abundance” value is on record as “markedly increased in abundance”.
For the compound `CCCCCCCCCC(C)=O` [2-undecanone], the “Mean abundance (%) Female” value was determined as 0.21% and the “Mean abundance (%) Male” value turned out to be 0.13%.
Consider `CCC1OC2(C)C=CCC1O2` (stereo not drawn) [3,4-dehydro-exo-7-ethyl-5-methyl-6,8-dioxabicyclo[3.2.1]octane, reference compound], for which the “Mean abundance (%) Female” value is on record as 2.84%, the “Mean abundance (%) Male” value is given as 7.4% and the “change in abundance” value is listed as “increase markedly”.
Consider `CC(C)=CCO` [3-methyl-2-buten-1-ol], for which the “Mean abundance (%) Female” value was found to be 0.20% and the “Mean abundance (%) Male” value stood at 0.42%.
Turning to `CCC(C)C(C)=O` (centres unmarked) [3-methyl-2-pentanone], the “Mean abundance (%) Female” value turned out to be 0.01%, the “Mean abundance (%) Male” value worked out at 0.33% and the “change in abundance” value is listed as “markedly increased in abundance”.
In the case of `C=C(C)CCO` [3-methyl-3-buten-1-ol], the “Mean abundance (%) Female” value is listed as 6.96% and the “Mean abundance (%) Male” value amounted to 4.6%.
For `CC(C)CC(=O)O` [3-methylbutyric acid], in that order: 3.30% and 0.0%.
The like results for `CCCC(=O)CCC` [4-heptanone] were, in that order, 1.52% and 0.0%.
Consider `CCC(=O)CCC(C)C` [6-methyl-3-heptanone], for which the “Mean abundance (%) Female” value amounted to 6.39% and the “Mean abundance (%) Male” value was found to be 4.44%.
With `CCC/C=C/C(C)=O` [E3-2-heptenone], the “Mean abundance (%) Female” value was found to be 2.3% and the “Mean abundance (%) Male” value was 2.15%.
`C/C=C/CCC(C)=O` [E5-2-heptenone]: the “Mean abundance (%) Female” value is given as 5.6% and the “Mean abundance (%) Male” value is reported as 4.06%.
For `CC(=O)c1ccccc1` [acetophenone], the “Mean abundance (%) Female” value was 1.64% and the “Mean abundance (%) Male” value was 3.61%.
For `CCCC(=O)O` [butyric acid], in that order: 29.74% and 0.0%.
Turning to `CSSSC` [dimethyl trisulfide], the “Mean abundance (%) Female” value was determined as 0.46% and the “Mean abundance (%) Male” value was 1.2%.
The like results for `CC(=O)CC/C=C(\C)CCC=C(C)C` [geranylacetone] were, in that order, 0.24% and 0.69%.
The like results for `C/C1=C\CC/C(C)=C/CC(C)(C)/C=C/C1` [α-humulene] were, in that order, 0.73% and 0.74%.
`C=CC(=C)CC/C=C(\C)CCC=C(C)C` [β-farnesene]: the “Mean abundance (%) Female” value was 0.39% and the “Mean abundance (%) Male” value was determined as 1.37%.
